Measured values: the supplement of paper PMC4604168 (melanoma cell lines)
The other results are listed elsewhere or left out. Many values rest on one well or one pass, so single values are uncertain.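 Cells were imaged in 1,536-well plates, and nuclei stained with an antibody against cleaved PARP were counted against all DNA-stained nuclei to give the apoptosis fraction. Screening doses were chosen to leave most cells alive, and resting and induced cleaved-PARP levels differ strongly between cell lines.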

Experiments:
Experiment in all cases: cleaved PARP positive nuclei fraction relative to DMSO control; melanoma cells; higher = more apoptosis
Settings in all cases: library dose: low library concentration; 72 h
CBRC034 = test system: CBRC034 (line from a melanoma biopsy)
COLO792 = test system: COLO792
COLO800 = test system: COLO800
COLO829 = test system: COLO829
G361 = test system: G361
IPC-298 = test system: IPC-298
IST-MEL1 = test system: IST-MEL1
LB2518-MEL = test system: LB2518-MEL
LOXIMVI = test system: LOXIMVI
MEL-HO = test system: MEL-HO
MZ2-MEL = test system: MZ2-MEL
MeWo = test system: MeWo
RPMI7951 = test system: RPMI7951
RVH-421 = test system: RVH-421
SkMel28 = test system: SkMel28
SkMel2 = test system: SkMel2
SkMel30 = test system: SkMel30
UACC62 = test system: UACC62

Structure (SMILES) | cleaved PARP positive nuclei fraction (CBRC034) | cleaved PARP positive nuclei fraction (COLO792) | cleaved PARP positive nuclei fraction (COLO800) | cleaved PARP positive nuclei fraction (COLO829) | cleaved PARP positive nuclei fraction (G361) | cleaved PARP positive nuclei fraction (IPC-298) | cleaved PARP positive nuclei fraction (IST-MEL1) | cleaved PARP positive nuclei fraction (LB2518-MEL) | cleaved PARP positive nuclei fraction (LOXIMVI) | cleaved PARP positive nuclei fraction (MEL-HO) | cleaved PARP positive nuclei fraction (MZ2-MEL) | cleaved PARP positive nuclei fraction (MeWo) | cleaved PARP positive nuclei fraction (RPMI7951) | cleaved PARP positive nuclei fraction (RVH-421) | cleaved PARP positive nuclei fraction (SkMel28) | cleaved PARP positive nuclei fraction (SkMel2) | cleaved PARP positive nuclei fraction (SkMel30) | cleaved PARP positive nuclei fraction (UACC62)
CC[C@]1(O)C[C@H]2CN(CCc3c([nH]c4ccccc34)[C@@](C(=O)OC)(c3cc4c(cc3OC)N(C=O)[C@H]3[C@@](O)(C(=O)OC)[C@H](OC(C)=O)[C@]5(CC)C=CCN6CC[C@]43[C@@H]65)C2)C1 [vincristine] + C=CCNC1=C2C[C@@H](C)C[C@H](OC)[C@H](O)[C@@H](C)/C=C(\C)[C@H](OC(N)=O)[C@@H](OC)/C=C\C=C(/C)C(=O)NC(=CC1=O)C2=O [Tanespimycin] (first compound 0.0001 µM, partner dose 0.002 µM) | 74.3% | 94.2% | 103% | 153% | 146% | 90.8% | 95.1% | 139% | 124% | 60.2% | 135% | 195% | 46% | 131% | 81.2% | 62.8% | 148% | 242%
Cc1ccc(Nc2nccc(N(C)c3ccc4c(C)n(C)nc4c3)n2)cc1S(N)(=O)=O [Pazopanib] + Cn1sc(=O)n(Cc2ccccc2)c1=O [TDZD-8] (first compound 0.4 µM, partner dose 0.4 µM) | 34% | 63.8% | 79.5% | 103% | 70.1% | 251% | 32% | 178% | 72.8% | 92.6% | 44.9% | 96.1% | 132% | 135% | 57.5% | 95.4% | 106% | 43.1%
Cc1cn(-c2cc(NC(=O)c3ccc(C)c(Nc4nccc(-c5cccnc5)n4)c3)cc(C(F)(F)F)c2)cn1 [nilotinib] + Cc1cc(Nc2cc(N3CCN(C)CC3)nc(/C=C/c3ccccc3)n2)n[nH]1 [ENMD2076] (first compound 0.2 µM, partner dose 0.04 µM) | 96.9% | 82.7% | 95% | 71.4% | 124% | 172% | 84.8% | 185% | 15.4% | 187% | 70.7% | 102% | 103% | 331% | 316% | 173% | 171% | 376%
O=c1[nH]nc(Sc2ncc([N+](=O)[O-])s2)n1-c1ccc2c(c1)OCCO2 + C=C(c1ccc(C(=O)O)cc1)c1cc2c(cc1C)C(C)(C)CCC2(C)C [Bexarotene] (first compound 0.2 µM, partner dose 2 µM) | 49.2% | 63.5% | 137% | 116% | 90.9% | 166% | 123% | 110% | 83% | 147% | 112% | 30.3% | 57.4% | 216% | 95.6% | 57% | 74.8% | 53.4%
Cc1cn(-c2cc(NC(=O)c3ccc(C)c(Nc4nccc(-c5cccnc5)n4)c3)cc(C(F)(F)F)c2)cn1 [nilotinib] + NC1(c2ccc(-c3nc4ccn5c(=O)[nH]nc5c4cc3-c3ccccc3)cc2)CCC1 [MK2206] (first compound 0.2 µM, partner dose 0.4 µM) | 118% | 81.9% | 112% | 86.6% | 112% | 141% | 153% | 217% | 165% | 139% | 78.1% | 49.5% | 51.3% | 202% | 252% | 103% | 455% | 203%
Cc1cc(Nc2cc(N3CCN(C)CC3)nc(Sc3ccc(NC(=O)C4CC4)cc3)n2)n[nH]1 [Tozasertib] + COc1ccc(C2=N[C@@H](c3ccc(Cl)cc3)[C@@H](c3ccc(Cl)cc3)N2C(=O)N2CCNC(=O)C2)c(OC(C)C)c1 [Nutlin-3] (first compound 0.006 µM, partner dose 0.1 µM) | 122% | 82.4% | 79.6% | 119% | 115% | 50.9% | 113% | 62.6% | 57.5% | 111% | 14.8% | 247% | 83.8% | 208% | 111% | 57.1% | 74.5% | 52%
CCCCCCCCCCCCCCCCCCOP(=O)([O-])OC1CC[N+](C)(C)CC1 [Perifosine] + Cn1cnc2c(F)c(Nc3ccc(Br)cc3Cl)c(C(=O)NOCCO)cc21 [selumetinib] (first compound 0.4 µM, partner dose 0.015 µM) | 50.7% | 113% | 104% | 100% | 161% | 145% | 101% | 75.4% | 184% | 84.7% | 135% | 167% | 115% | 47.7% | 42.1% | 120% | 161% | 20.6%
O=C(/C=C/c1cccnc1)NCCCCC1CCN(C(=O)c2ccccc2)CC1 + C=C(c1ccc(C(=O)O)cc1)c1cc2c(cc1C)C(C)(C)CCC2(C)C [Bexarotene] (first compound 0.01 µM, partner dose 2 µM) | 2620% | 1300% | 201% | 363% | 3650% | 289% | 185% | 120% | 86% | 95.8% | 539% | 130% | 198% | 172% | 104% | 2080% | 30.4% | 231%
N#CC[C@H](C1CCCC1)n1cc(-c2ncnc3[nH]ccc23)cn1 [ruxolitinib] + CN(c1ncccc1CNc1nc(Nc2ccc3c(c2)CC(=O)N3)ncc1C(F)(F)F)S(C)(=O)=O [PF562271] (first compound 1 µM, partner dose 0.08 µM) | 118% | 113% | 67% | 74.5% | 127% | 253% | 65.6% | 82.4% | 43% | 47.3% | 102% | 42.4% | 133% | 45.4% | 90.5% | 53.8% | 81.1% | 105%
N#CC[C@H](C1CCCC1)n1cc(-c2ncnc3[nH]ccc23)cn1 [ruxolitinib] + CS(=O)(=O)c1ccc(C(=O)Nc2ccc(Cl)c(-c3ccccn3)c2)c(Cl)c1 [vismodegib] (first compound 1 µM, partner dose 1 µM) | 103% | 84% | 81.1% | 119% | 58.8% | 43.4% | 188% | 77.1% | 218% | 69.7% | 136% | 173% | 136% | 126% | 41% | 54.5% | 210% | 81.2%
Cc1ccc(Nc2nccc(N(C)c3ccc4c(C)n(C)nc4c3)n2)cc1S(N)(=O)=O [Pazopanib] + CCCCCCCCc1ccc(CCC(N)(CO)CO)cc1 [fingolimod] (first compound 0.4 µM, partner dose 2 µM) | 34.1% | 155% | 182% | 97.4% | 78.8% | 107% | 135% | 97.7% | 164% | 135% | 55.9% | 78.9% | 169% | 193% | 83.2% | 113% | 108% | 97.1%
O=C(Nc1cc(C(F)(F)F)cc(C(F)(F)F)c1)c1cc(Cl)ccc1O + COc1ccc(Cl)c(Nc2nc3ccccc3nc2NS(=O)(=O)c2cccc(NC(=O)C(C)(C)N)c2)c1 [XL147] (first compound 0.016 µM, partner dose 0.8 µM) | 74.2% | 84.7% | 44.6% | 130% | 90.2% | 132% | 171% | 111% | 124% | 39.1% | 36.2% | 57.5% | 30.3% | 79.8% | 41.1% | 69% | 97.2% | 105%
N#CC[C@H](C1CCCC1)n1cc(-c2ncnc3[nH]ccc23)cn1 [ruxolitinib] + CC(=O)O[C@@]12CO[C@@H]1C[C@H](O)[C@@]1(C)C(=O)[C@H](O)C3=C(C)[C@@H](OC(=O)[C@H](O)[C@@H](NC(=O)OC(C)(C)C)c4ccccc4)C[C@@](O)([C@@H](OC(=O)c4ccccc4)[C@H]21)C3(C)C [Docetaxel] (first compound 1 µM, partner dose 0.0001 µM) | 67.7% | 465% | 328% | 179% | 596% | 255% | 94.1% | 433% | 244% | 94.5% | 296% | 573% | 140% | 110% | 53.5% | 560% | 236% | 1110%
O=c1[nH]nc(Sc2ncc([N+](=O)[O-])s2)n1-c1ccc2c(c1)OCCO2 + Nc1cccc2c1CN(C1CCC(=O)NC1=O)C2=O [lenalidomide] (first compound 0.2 µM, partner dose 1 µM) | 63.5% | 100% | 78.5% | 132% | 86% | 120% | 60.4% | 182% | 52.6% | 23.7% | 19.5% | 161% | 262% | 26.8% | 65.1% | 143% | 34.7% | 173%
Cc1cc(Nc2cc(N3CCN(C)CC3)nc(Sc3ccc(NC(=O)C4CC4)cc3)n2)n[nH]1 [Tozasertib] + CN1CCN(c2ccc3nc(-c4c(N)c5c(F)cccc5[nH]c4=O)[nH]c3c2)CC1 [Dovitinib] (first compound 0.006 µM, partner dose 0.1 µM) | 65% | 131% | 174% | 127% | 136% | 45.1% | 63.2% | 130% | 127% | 85.1% | 170% | 42.6% | 83.9% | 167% | 72.2% | 86.3% | 129% | 118%
CCCCCCCCCCCCCCCCCCOP(=O)([O-])OC1CC[N+](C)(C)CC1 [Perifosine] + Cc1cn(-c2cc(NC(=O)c3ccc(C)c(Nc4nccc(-c5cccnc5)n4)c3)cc(C(F)(F)F)c2)cn1 [nilotinib] (first compound 0.4 µM, partner dose 0.2 µM) | 173% | 97.3% | 31.1% | 65.8% | 126% | 88.4% | 119% | 208% | 156% | 112% | 41.2% | 36.4% | 66.1% | 74% | 37.1% | 117% | 53.2% | 87.5%

Reprinted from above (4 entries):
Structure (SMILES) | cleaved PARP positive nuclei fraction (CBRC034) | cleaved PARP positive nuclei fraction (COLO792) | cleaved PARP positive nuclei fraction (COLO800) | cleaved PARP positive nuclei fraction (COLO829) | cleaved PARP positive nuclei fraction (G361) | cleaved PARP positive nuclei fraction (IPC-298) | cleaved PARP positive nuclei fraction (IST-MEL1) | cleaved PARP positive nuclei fraction (LB2518-MEL) | cleaved PARP positive nuclei fraction (LOXIMVI) | cleaved PARP positive nuclei fraction (MEL-HO) | cleaved PARP positive nuclei fraction (MZ2-MEL) | cleaved PARP positive nuclei fraction (MeWo) | cleaved PARP positive nuclei fraction (RPMI7951) | cleaved PARP positive nuclei fraction (RVH-421) | cleaved PARP positive nuclei fraction (SkMel28) | cleaved PARP positive nuclei fraction (SkMel2) | cleaved PARP positive nuclei fraction (SkMel30) | cleaved PARP positive nuclei fraction (UACC62)
Cc1cc(Nc2cc(N3CCN(C)CC3)nc(Sc3ccc(NC(=O)C4CC4)cc3)n2)n[nH]1 [Tozasertib] + COc1ccc(C2=N[C@@H](c3ccc(Cl)cc3)[C@@H](c3ccc(Cl)cc3)N2C(=O)N2CCNC(=O)C2)c(OC(C)C)c1 [Nutlin-3] (first compound 0.006 µM, partner dose 0.1 µM) | 122% | 82.4% | 79.6% | 119% | 115% | 50.9% | 113% | 62.6% | 57.5% | 111% | 14.8% | 247% | 83.8% | 208% | 111% | 57.1% | 74.5% | 52%
CCCCCCCCCCCCCCCCCCOP(=O)([O-])OC1CC[N+](C)(C)CC1 [Perifosine] + Cn1cnc2c(F)c(Nc3ccc(Br)cc3Cl)c(C(=O)NOCCO)cc21 [selumetinib] (first compound 0.4 µM, partner dose 0.015 µM) | 50.7% | 113% | 104% | 100% | 161% | 145% | 101% | 75.4% | 184% | 84.7% | 135% | 167% | 115% | 47.7% | 42.1% | 120% | 161% | 20.6%
O=C(/C=C/c1cccnc1)NCCCCC1CCN(C(=O)c2ccccc2)CC1 + C=C(c1ccc(C(=O)O)cc1)c1cc2c(cc1C)C(C)(C)CCC2(C)C [Bexarotene] (first compound 0.01 µM, partner dose 2 µM) | 2620% | 1300% | 201% | 363% | 3650% | 289% | 185% | 120% | 86% | 95.8% | 539% | 130% | 198% | 172% | 104% | 2080% | 30.4% | 231%
N#CC[C@H](C1CCCC1)n1cc(-c2ncnc3[nH]ccc23)cn1 [ruxolitinib] + CN(c1ncccc1CNc1nc(Nc2ccc3c(c2)CC(=O)N3)ncc1C(F)(F)F)S(C)(=O)=O [PF562271] (first compound 1 µM, partner dose 0.08 µM) | 118% | 113% | 67% | 74.5% | 127% | 253% | 65.6% | 82.4% | 43% | 47.3% | 102% | 42.4% | 133% | 45.4% | 90.5% | 53.8% | 81.1% | 105%
